Experimental data from PubChem BioAssay AID330 (DTP/NCI, 2004).
The list does not hold the whole screen: it gathers tests that were run many times, whatever their T/C, doses with no T/C, and many T/C values between a quarter and a half above the control. Further doses and runs are listed elsewhere. T/C: endpoint of the treated group in % of that of the vehicle group. Some entries give survivors of the animals treated and no T/C: the source holds a T/C of zero for them, seemingly a mark for toxic or unscored doses. Some doses without a T/C left all or most animals alive at the check, yet need not have been tolerated: the source hardly ever lists a survival T/C far under the control, and the zero likely stands for such cases as well. Counts of survivors are from the toxicity check (mostly the fifth day) where no day follows; animals may have died later. Schedules are NCI's codes, read here as Q, the interval in days (D) or hours (H), X, the number of doses. Counts like (3×) stand for listed records that agree. Some entries were tested several times; the values are given in rising order. For survival time, the PubChem record calls one and a half times the control and up active, and a quarter to a half above the control has no call in these data; cut-offs in other NCI protocols can differ.

Test system: P388 leukemia ip, CD2F1 mice, survival T/C
Experiment: NCI In Vivo Anticancer Drug Screen. Data for tumor model P388 Leukemia (intraperitoneal) in CD2F1 (CDF1) mice
Details: T/C endpoint: median survival time, higher T/C = longer survival
[1] = dose: 100.0 mg/kg/injection, schedule: Q01DX005 (ip), vehicle: saline
[2] = dose: 200.0 mg/kg/injection, schedule: Q01DX005 (ip), vehicle: saline
[3] = dose: 400.0 mg/kg/injection, schedule: Q01DX001 (ip), vehicle: saline with Tween-80
[4] = dose: 200.0 mg/kg/injection, schedule: Q01DX009 (ip), vehicle: Klucel (hydroxypropylcellulose) (HPC)
[5] = dose: 200.0 mg/kg/injection, schedule: Q01DX005 (ip), vehicle: Klucel (hydroxypropylcellulose) (HPC)
[6] = dose: 400.0 mg/kg/injection, schedule: Q01DX009 (ip), vehicle: Klucel (hydroxypropylcellulose) (HPC)

c1cc2nc(-c3ccc4cc(C5=NCCN5)[nH]c4c3)[nH]c2cc1C1=NCCN1 was tested, and the survivor count (dose: 50.0 mg/kg/injection, schedule: Q01DX005 (ip), vehicle: saline) was 2 of 6, the survivor count [1] was 0 of 6 and the survivor count [2] was 0 of 6.

For S=c1cc(-c2ccccc2)c(-c2ccccc2)c(-c2ccccc2)s1, the survivor count [3] was 6 of 6.

COc1cc(C=Nc2cc(Cl)ccc2-n2ccnc2C)ccc1N(CCCl)CCCl was tested, and the T/C (dose: 100.0 mg/kg/injection, schedule: Q04DX003 (ip), vehicle: saline with Tween-80) was 146 % of control and the survivor count (dose: 400.0 mg/kg/injection, schedule: Q04DX003 (ip), vehicle: saline with Tween-80) was 6 of 6.

In the case of CNC(=O)OCc1c(COC(=O)NC)c(C(F)(F)F)n2c1CCC2, the survivor count [4] is reported as 5 of 6.

CO/N=C(\N)NC(=O)Cc1c(Cl)cccc1Cl was tested, and the survivor count (dose: 100.0 mg/kg/injection, schedule: Q01DX005 (ip), vehicle: Klucel (hydroxypropylcellulose) (HPC)) was 5 of 6 and the survivor count [5] was 1 of 6.

In the case of CC(=O)Nc1ccc(C(=O)O)c([N+](=O)[O-])c1, the survivor count [6] is reported as 4 of 6.

CC(C)(NCc1ccccc1)C(=O)OC(C)(C)C(=O)NCc1ccccc1 was tested, and the survivor count (dose: 100.0 mg/kg/injection, schedule: Q01DX005 (ip), vehicle: saline with Tween-80) was 1 of 5.

With CN1CCC(/C=C/c2ccccc2)CN1 (stereo unspecified) (tested in a mixture with another compound) the survivor count (dose: 200.0 mg/kg/injection, schedule: Q01DX009 (ip), vehicle: saline) was 0 of 6.

In the case of Cc1nn(C)pc1P(C)(=S)n1nc(N(C)C)np1 (stereo unspecified), the survivor count [5] is reported as 4 of 6.

In the case of COc1ccc(NC(=O)Oc2ccc(C#N)cc2)cc1, the T/C (dose: 60.0 mg/kg/injection, schedule: Q01DX005 (ip), vehicle: Klucel (hydroxypropylcellulose) (HPC)) is reported as 127 % of control and the survivor count (dose: 240.0 mg/kg/injection, schedule: Q01DX005 (ip), vehicle: Klucel (hydroxypropylcellulose) (HPC)) is reported as 5 of 6.

For CC(=O)NC(CC(C)C)C(=O)NC(Cc1ccccc1)C(=O)CCl (stereo unspecified), the T/C (dose: 25.0 mg/kg/injection, schedule: Q01DX009 (ip), vehicle: Klucel (hydroxypropylcellulose) (HPC)) was 127 % of control, the survivor count (dose: 50.0 mg/kg/injection, schedule: Q01DX009 (ip), vehicle: Klucel (hydroxypropylcellulose) (HPC)) was 3 of 6 and the survivor count (dose: 100.0 mg/kg/injection, schedule: Q01DX009 (ip), vehicle: Klucel (hydroxypropylcellulose) (HPC)) was 0 of 6. For the same compound, the survivor count [4] was 0 of 6 and the survivor count [6] was 0 of 6.

With Nc1nccc2[nH]ccc12 the survivor count (dose: 100.0 mg/kg/injection, schedule: Q01DX001 (ip), vehicle: saline with Tween-80) was 3 of 6, the survivor count (dose: 200.0 mg/kg/injection, schedule: Q01DX001 (ip), vehicle: saline with Tween-80) was 0 of 6 and the survivor count [3] was 0 of 6.

Cn1c([N+](=O)[O-])cnc1CSC(=S)N1CCN(C(=S)SCc2ncc([N+](=O)[O-])n2C)CC1 was tested, and the survivor count (dose: 400.0 mg/kg/injection, schedule: Q01DX009 (ip), vehicle: saline with Tween-80) was 0 of 6 and 4 of 5.

For CCCN(CCNc1cc(OC)cc2cccnc12)C(C)C, the survivor count [1] was 3 of 5 and the survivor count [2] was 0 of 5.

COc1cccc2c1C(=O)c1c(O)c3c(c(O)c1C2=O)C[C@@](O)(/C(C)=N/NC(=O)c1cccc([N+](=O)[O-])c1)C[C@@H]3OC1CC(N)C(O)C(C)O1 (stereo partly specified) was tested, and the T/C (dose: 0.12 mg/kg/injection, schedule: Q01DX009 (ip), vehicle: water) was 125 % of control, the T/C (dose: 0.25 mg/kg/injection, schedule: Q01DX009 (ip), vehicle: water) was 130 % of control and the T/C (dose: 0.5 mg/kg/injection, schedule: Q01DX009 (ip), vehicle: water) was 130 % of control. For the same compound, the T/C (dose: 1.0 mg/kg/injection, schedule: Q01DX009 (ip), vehicle: water) was 146 % of control, the survivor count (dose: 16.0 mg/kg/injection, schedule: Q01DX009 (ip), vehicle: water) was 6 of 6 (2×) and the T/C (dose: 20.0 mg/kg/injection, schedule: Q01DX001 (ip), vehicle: water) was 126 % of control. The T/C (dose: 25.0 mg/kg/injection, schedule: Q04DX003 (ip), vehicle: water) was 138 % of control, the T/C (dose: 32.0 mg/kg/injection, schedule: Q04DX003 (ip), vehicle: saline) was 131 and 137 % of control and the survivor count (dose: 40.0 mg/kg/injection, schedule: Q01DX001 (ip), vehicle: water) was 6 of 6. The T/C (dose: 50.0 mg/kg/injection, schedule: Q04DX003 (ip), vehicle: water, evaluated on day 30) was 140 % of control, the T/C (dose: 50.0 mg/kg/injection, schedule: Q04DX003 (ip), vehicle: water, evaluated on day 45) was 126 % of control and the T/C (dose: 64.0 mg/kg/injection, schedule: Q04DX003 (ip), vehicle: saline) was 134 and 135 % of control. The survivor count (dose: 80.0 mg/kg/injection, schedule: Q01DX001 (ip), vehicle: water) was 5 of 6, the T/C (dose: 128.0 mg/kg/injection, schedule: Q04DX003 (ip), vehicle: saline) was 126 % of control and the survivor count (dose: 160.0 mg/kg/injection, schedule: Q01DX001 (ip), vehicle: water) was 0 of 6.
